Source: the supplement of paper PMC4604168 (melanoma cell lines)
The list shows a part of the results. Single values are uncertain, as repeats are few or missing.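 Cells were imaged in 1,536-well plates, and nuclei stained with an antibody against cleaved PARP were counted against all DNA-stained nuclei to give the apoptosis fraction. Screening doses were chosen to leave most cells alive, and resting and induced cleaved-PARP levels differ strongly between cell lines.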

system: COLO829; assay: cleaved PARP positive nuclei fraction relative to DMSO control; melanoma cells; higher = more apoptosis; conditions: library dose: low library concentration; 72 h

Question: How did the “cleaved PARP positive nuclei fraction” value turn out when `O=C(O)[C@@H]1[O][Sb](=[O])([O][Sb]2(=[O])[O][C@H]([C@H](O)CO)[C@H](O)[C@H](C(=O)O)[O]2)[O][C@H]([C@H](O)CO)[C@@H]1O` (stereo not given in full) [stibogluconate] + COc1ccc(Cl)c(Nc2nc3ccccc3nc2NS(=O)(=O)c2cccc(NC(=O)C(C)(C)N)c2)c1 [XL147] (first compound 2 µM, partner dose 0.8 µM) was run?
Answer: 84.9%

Question: For `Cc1cc(Nc2cc(N3CCN(C)CC3)nc(/C=C/c3ccccc3)n2)n[nH]1` + C#Cc1cccc(Nc2ncnc3cc(OCCOC)c(OCCOC)cc23)c1 [erlotinib] (first compound 0.04 µM, partner dose 0.8 µM), which “cleaved PARP positive nuclei fraction” value is on record?
Answer: 106%

Question: With `Nc1ccn([C@@H]2O[C@H](CO)[C@@H](O)C2(F)F)c(=O)n1` [gemcitabine] + COc1ccc(Cl)c(Nc2nc3ccccc3nc2NS(=O)(=O)c2cccc(NC(=O)C(C)(C)N)c2)c1 [XL147] (first compound 0.0004 µM, partner dose 0.8 µM) as the compound, how does the “cleaved PARP positive nuclei fraction” value read?
Answer: 133%

Question: With `Cc1cc(Nc2cc(N3CCN(C)CC3)nc(/C=C/c3ccccc3)n2)n[nH]1` + CNC(=O)c1cc(Oc2ccc(NC(=O)Nc3ccc(Cl)c(C(F)(F)F)c3)cc2)ccn1 [sorafenib] (first compound 0.04 µM, partner dose 0.4 µM) as the compound, how does the “cleaved PARP positive nuclei fraction” value read?
Answer: 136%

Question: For `O=C(O)c1ccc2c(c1)nc(Nc1cccc(Cl)c1)c1ccncc12` + Nc1nc(F)nc2c1ncn2[C@@H]1O[C@H](CO)[C@@H](O)[C@@H]1O [fludarabine] (first compound 0.4 µM, partner dose 0.2 µM), which “cleaved PARP positive nuclei fraction” value is on record?
Answer: 114%
